Assay [1] concerns the target T1, GST fusion of AURKA 283–333 domain (human) (UniProt O14965).
T1 sequence: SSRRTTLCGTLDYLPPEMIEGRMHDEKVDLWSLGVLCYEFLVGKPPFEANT
Nature of the assay: pull-down; 5 μg GST fusion protein of a truncated form incubated 1 h at 4 °C in RIPA lysate of 293T cells overexpressing HA-tagged AURKA or hnRNP K; glutathione–agarose beads; only the target purified.

The target of assay [2] is T2, AURKA, ectopically expressed (co-IP of Supplementary Fig. 3h,i,k) (human) (UniProt O14965).
T2 sequence: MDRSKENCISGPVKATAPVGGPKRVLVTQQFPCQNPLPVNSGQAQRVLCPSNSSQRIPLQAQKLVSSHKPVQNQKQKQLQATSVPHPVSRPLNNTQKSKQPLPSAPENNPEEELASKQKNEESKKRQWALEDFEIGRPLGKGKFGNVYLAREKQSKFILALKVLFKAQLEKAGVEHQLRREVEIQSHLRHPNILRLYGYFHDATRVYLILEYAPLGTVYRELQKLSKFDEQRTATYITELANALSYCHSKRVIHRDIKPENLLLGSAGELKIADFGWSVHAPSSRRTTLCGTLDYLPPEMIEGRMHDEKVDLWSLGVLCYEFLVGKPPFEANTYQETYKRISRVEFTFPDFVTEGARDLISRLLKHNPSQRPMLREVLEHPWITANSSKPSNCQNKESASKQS
Briefly: co-IP; ectopically expressed proteins; RIPA lysate, 1 μg antibody and 200–500 μg lysate.

The target in assay [3] is T3, AURKA-EYFP (human) (UniProt O14965).
T3 sequence: T2 sequence
Nature of the assay: FRET or BRET; sensitized emission FRET in 293T cells co-transfected with hnRNP K-ECFP and AURKA-EYFP, 48 h, room temperature; ROIs in cytoplasm and nucleus.

Assay [4] deals with T4, Aurora kinase A (AURKA), endogenous (human (endogenous in MDA-MB-231 and breast cancer tissue)) (UniProt O14965).
T4 sequence: T2 sequence
Briefly: co-IP; endogenous proteins; RIPA lysate, 1 μg antibody and 2–5 mg lysate.

Assay [5] addresses T4, Aurora kinase A (AURKA), endogenous (human (endogenous in MDA-MB-231 and breast cancer tissue)). Briefly: co-IP; endogenous proteins; nuclear and cytoplasmic protein fractions of MDA-MB-231 cells.
For assay [6] the target is unchanged. Briefly: co-IP; endogenous proteins; lysate of breast cancer tissue in which AURKA is predominantly expressed in the cytoplasm (Fig. 3k lane 4).
For assay [7] the target is unchanged. Nature of the assay: co-IP; endogenous proteins; lysates of breast cancer tissue in which AURKA is predominantly expressed in the nucleus (Fig. 3k lanes 2 and 6).
Assay [8] has the same target. Nature of the assay: re-ChIP; formaldehyde-fixed chromatin of MDA-MB-231 cells, sequential ChIP with antibodies against AURKA and hnRNP K, real-time PCR of the MYC promoter.
In assay [9] the target is T5, Flag-AURKA–enhanced green fluorescent protein (EGFP) (human) (UniProt O14965).
T5 sequence: T2 sequence
Nature of the assay: co-IP; 293T co-transfected with WT or NLS deletion mutant hnRNP K and Flag-AURKA–EGFP for 24 h; whole lysates.

Assay [10] deals with T5, Flag-AURKA–enhanced green fluorescent protein (EGFP) (human). Nature of the assay: co-IP; 293T co-transfected with WT or NLS deletion mutant hnRNP K and Flag-AURKA–EGFP for 24 h; cytoplasmic protein fraction.
Assay [11] shares this target. Nature of the assay: co-IP; 293T co-transfected with WT or NLS deletion mutant hnRNP K and Flag-AURKA–EGFP for 24 h; nuclear protein fraction.

These results are taken from PMC4735655.

These are yes or no findings as the source states them, for the method shown. For some assays here: In cells and extracts the contact can be indirect. Some entries that bind do so weakly or less than the wild type. For some assays here: Tags and fused reporters may be left off the sequences shown.

Take “HA-tagged hnRNP K (from UniProt P61978 1-463)”: the binding result in [1] is “binds”.

“hnRNP K, ectopically expressed (co-IP of Supplementary Fig. 3h,i,k) (from UniProt P61978 1-463)”: the binding entry in assay [2] is on record as “binds”.

Regarding “hnRNP K-ECFP (from UniProt P61978 1-463)”, in [3], the binding result is given as “binds”.

In the case of “heterogeneous nuclear ribonucleoprotein K (hnRNP K), endogenous (from UniProt P61978 1-463)”, the binding result in [4] is “binds”; in [5], “binds”; in [6] it was “binds weakly”; in assay [7], “binds”; in assay [8], “binds”.

“NLS deletion mutant hnRNP K (from UniProt P61978 1-463)”: the binding result in [9] is “binds”; in assay [10], “binds weakly”; in assay [11], “binds”.

As for “WT hnRNP K (co-transfected with Flag-AURKA–EGFP) (from UniProt P61978 1-463)”, the binding entry in assay [9] is on record as “binds”; in [10], “binds weakly”; in assay [11], “binds”.
